Results are given in words; binding and its absence hold for the method and conditions named. Binding seen in cells or lysates may run through a third protein. Here binding means that the protein was enriched with, or labelled near, the bait; the list need not be complete.

Protein sequences, listed by entry. Tags and fused reporters are not part of them.
UniProt Q96NB1: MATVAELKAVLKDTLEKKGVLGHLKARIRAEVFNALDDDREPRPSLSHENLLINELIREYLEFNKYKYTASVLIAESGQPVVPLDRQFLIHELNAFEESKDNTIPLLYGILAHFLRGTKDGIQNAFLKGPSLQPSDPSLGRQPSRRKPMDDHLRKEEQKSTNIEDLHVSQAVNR
UniProt Q15154: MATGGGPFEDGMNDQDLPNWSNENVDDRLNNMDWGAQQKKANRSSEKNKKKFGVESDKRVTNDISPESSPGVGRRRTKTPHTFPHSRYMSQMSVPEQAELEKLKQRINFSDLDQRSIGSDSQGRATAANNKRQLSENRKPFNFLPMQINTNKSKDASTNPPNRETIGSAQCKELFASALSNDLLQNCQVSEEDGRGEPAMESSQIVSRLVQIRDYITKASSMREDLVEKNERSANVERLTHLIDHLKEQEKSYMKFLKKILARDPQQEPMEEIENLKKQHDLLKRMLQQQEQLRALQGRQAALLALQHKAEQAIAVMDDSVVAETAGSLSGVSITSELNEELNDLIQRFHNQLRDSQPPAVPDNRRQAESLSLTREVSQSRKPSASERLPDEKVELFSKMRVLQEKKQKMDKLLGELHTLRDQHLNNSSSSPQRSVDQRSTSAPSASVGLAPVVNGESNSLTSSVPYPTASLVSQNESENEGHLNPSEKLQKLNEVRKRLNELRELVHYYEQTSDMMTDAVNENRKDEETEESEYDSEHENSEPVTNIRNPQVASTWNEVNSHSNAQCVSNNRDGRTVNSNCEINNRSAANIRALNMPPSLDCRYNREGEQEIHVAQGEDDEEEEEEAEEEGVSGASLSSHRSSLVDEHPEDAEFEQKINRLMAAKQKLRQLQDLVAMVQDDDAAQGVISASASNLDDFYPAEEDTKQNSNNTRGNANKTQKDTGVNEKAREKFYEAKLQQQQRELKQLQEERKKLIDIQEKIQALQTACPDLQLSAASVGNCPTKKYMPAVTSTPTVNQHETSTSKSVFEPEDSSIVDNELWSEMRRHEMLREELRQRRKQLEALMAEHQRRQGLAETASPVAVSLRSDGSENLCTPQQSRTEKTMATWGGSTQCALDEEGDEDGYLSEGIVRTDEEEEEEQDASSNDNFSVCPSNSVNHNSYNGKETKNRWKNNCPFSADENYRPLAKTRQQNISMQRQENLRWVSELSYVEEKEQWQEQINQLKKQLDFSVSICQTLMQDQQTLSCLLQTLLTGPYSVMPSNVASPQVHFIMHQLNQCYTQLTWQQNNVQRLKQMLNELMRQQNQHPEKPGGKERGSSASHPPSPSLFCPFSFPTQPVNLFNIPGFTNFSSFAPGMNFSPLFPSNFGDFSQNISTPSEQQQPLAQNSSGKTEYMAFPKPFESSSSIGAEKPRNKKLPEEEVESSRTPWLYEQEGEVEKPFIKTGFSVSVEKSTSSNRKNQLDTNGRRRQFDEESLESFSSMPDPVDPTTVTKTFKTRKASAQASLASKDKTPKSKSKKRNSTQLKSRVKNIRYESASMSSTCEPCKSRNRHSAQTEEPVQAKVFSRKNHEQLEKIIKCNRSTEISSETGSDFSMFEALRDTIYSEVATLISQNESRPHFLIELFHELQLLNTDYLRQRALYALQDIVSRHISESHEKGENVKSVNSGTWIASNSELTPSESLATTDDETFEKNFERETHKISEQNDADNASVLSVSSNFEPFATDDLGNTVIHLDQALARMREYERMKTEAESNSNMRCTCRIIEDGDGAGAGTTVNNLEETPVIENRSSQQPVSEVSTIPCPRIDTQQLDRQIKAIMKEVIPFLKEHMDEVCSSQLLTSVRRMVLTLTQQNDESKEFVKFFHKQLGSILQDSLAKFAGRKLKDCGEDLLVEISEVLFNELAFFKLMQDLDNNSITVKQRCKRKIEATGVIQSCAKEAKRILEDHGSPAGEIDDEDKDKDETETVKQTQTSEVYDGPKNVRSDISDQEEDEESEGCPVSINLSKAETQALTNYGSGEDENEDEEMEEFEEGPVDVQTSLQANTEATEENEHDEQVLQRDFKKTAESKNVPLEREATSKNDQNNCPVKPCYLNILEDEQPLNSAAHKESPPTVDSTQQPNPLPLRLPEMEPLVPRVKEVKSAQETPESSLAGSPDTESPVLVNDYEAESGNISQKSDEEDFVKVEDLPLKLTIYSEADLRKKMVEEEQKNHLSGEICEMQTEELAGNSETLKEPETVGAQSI
UniProt Q9BVV6: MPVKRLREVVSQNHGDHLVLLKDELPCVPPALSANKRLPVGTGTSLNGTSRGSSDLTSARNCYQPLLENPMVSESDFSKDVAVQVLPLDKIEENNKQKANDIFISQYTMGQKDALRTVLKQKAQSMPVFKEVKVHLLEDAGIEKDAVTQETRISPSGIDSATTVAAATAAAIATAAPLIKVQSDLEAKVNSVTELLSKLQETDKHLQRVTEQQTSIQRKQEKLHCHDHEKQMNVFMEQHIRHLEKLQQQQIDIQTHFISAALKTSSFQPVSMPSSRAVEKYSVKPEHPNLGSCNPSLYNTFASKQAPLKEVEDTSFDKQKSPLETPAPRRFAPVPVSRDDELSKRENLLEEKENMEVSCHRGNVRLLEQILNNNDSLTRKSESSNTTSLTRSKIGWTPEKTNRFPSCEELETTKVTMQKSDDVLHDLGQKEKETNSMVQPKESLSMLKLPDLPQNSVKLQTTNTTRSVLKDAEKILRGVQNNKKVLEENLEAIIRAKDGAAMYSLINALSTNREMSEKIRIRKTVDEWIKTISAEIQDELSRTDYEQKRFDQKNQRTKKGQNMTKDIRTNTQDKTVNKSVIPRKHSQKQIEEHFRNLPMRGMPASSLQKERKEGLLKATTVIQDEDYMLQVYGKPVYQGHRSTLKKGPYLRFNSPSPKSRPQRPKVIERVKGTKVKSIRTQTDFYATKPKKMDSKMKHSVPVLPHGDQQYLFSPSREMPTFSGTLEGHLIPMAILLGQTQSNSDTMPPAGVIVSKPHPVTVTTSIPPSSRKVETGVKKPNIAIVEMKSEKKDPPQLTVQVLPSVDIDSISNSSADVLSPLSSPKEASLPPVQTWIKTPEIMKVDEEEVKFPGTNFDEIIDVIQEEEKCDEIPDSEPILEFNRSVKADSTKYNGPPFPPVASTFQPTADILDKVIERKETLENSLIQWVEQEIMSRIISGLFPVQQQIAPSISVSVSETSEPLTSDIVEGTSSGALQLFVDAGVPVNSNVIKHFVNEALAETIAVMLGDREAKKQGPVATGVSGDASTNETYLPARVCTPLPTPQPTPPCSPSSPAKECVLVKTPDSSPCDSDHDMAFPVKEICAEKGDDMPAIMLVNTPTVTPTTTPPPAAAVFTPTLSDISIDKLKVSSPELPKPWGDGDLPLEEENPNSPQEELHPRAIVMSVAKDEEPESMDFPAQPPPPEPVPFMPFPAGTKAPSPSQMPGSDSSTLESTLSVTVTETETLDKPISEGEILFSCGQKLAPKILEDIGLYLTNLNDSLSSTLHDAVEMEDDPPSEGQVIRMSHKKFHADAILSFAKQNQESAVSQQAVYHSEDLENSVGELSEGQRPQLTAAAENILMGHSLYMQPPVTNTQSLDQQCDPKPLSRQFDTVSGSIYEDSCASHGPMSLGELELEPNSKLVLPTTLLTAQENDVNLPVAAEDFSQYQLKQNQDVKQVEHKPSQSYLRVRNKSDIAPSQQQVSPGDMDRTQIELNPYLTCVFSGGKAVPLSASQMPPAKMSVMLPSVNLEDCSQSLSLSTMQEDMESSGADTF

Experimental findings from article doi:10.1101/2021.07.13.452210 are described below.

To fix the notation:
B1: endogenous OFIP/MNR/KIAA0753 (protein, UniProt Q2KHM9 1-967)
chain: MGPGQPASTCVHLAPRTQLDGRSDPKVLQTQNQLQFNRNVPTHSSNLAIRYSCPHAIRIEKLKHSYNESYHCKDADCRVGPDLGSSVSFSVISQERLSYAVHLARRDVKRRQFEKHIKEHHLRSQPQSSQKCGHTKYKIPDHRVERKESKSQAACQCSHQPSKVEISSSGAKVYLYSSHPGQSDLTVPNSPPTHDPGLQPHPRIGDHKNISEQKSLLEVQRLQKELSSCIHKIEEVTKKDRLEEALDPDEERRIRIRRQEQAARSARMLYVLQQQVKEIQEELDKLSPHKIKHTKKSWAMSKLAAAHRGAIRALQMFVTQFTDRGEHPLPARCKELGSLIRQLSLCSVKLDADPSVPDVVIDILQQIEALESLLEKKLSPKKVKKCFSEIRSRFPIGSQKALERWPSTSPKGERRPLTAKDTFPQETSRPSVAKQLLADKYQPDTELPETQRLQSELDVLDADIVLEEGPFILDQSASFKDEVLAVAKTKAGKKKPVTENVPFRKKDTLAPARQQGLRKAERGRQSQPHSKSRVQQTTVSSRLKMNRQPVKDRKAPWIPPNPTSPPASPKCAAWLKVKTSPRDATKEPLQQEDPQEESHLTGAVEHEAARLAWLDAETSKRLKELEELKAKEIDSMQKQRLDWLDAETSRRTKELNELKAEEMYRLQQLSVSATHLADKVEEAVLDRLKPLLVKAQRVNSTTEANIHLKDGSSVNTAKAQPAQEVAAVDFESNNIRQLDDFLEDCASELWAVTHAKILGSETLATVEDSKDSPDLEIMMRRMEEMEKYQESVRQRYNKIAYADPRLWMQEENNDQKISAISEKPLSPHPIRITKTVDRKDPAVNIMLERPCNGNSLDESVGTEEGSEKREAPLLSLAEDSQQKEGRAPLFVPPGMQHSIGDYCSRFEQYLRIISHEAVGSFNPWLIAESFSEELVDEALGAVAAELQDMCEDYAEAVFTSEFLEAAT
B2: endogenous CEP90/PIBF1 (protein, UniProt Q8WXW3 1-757)
chain: MSRKISKESKKVNISSSLESEDISLETTVPTDDISSSEEREGKVRITRQLIERKELLHNIQLLKIELSQKTMMIDNLKVDYLTKIEELEEKLNDALHQKQLLTLRLDNQLAFQQKDASKYQELMKQEMETILLRQKQLEETNLQLREKAGDVRRNLRDFELTEEQYIKLKAFPEDQLSIPEYVSVRFYELVNPLRKEICELQVKKNILAEELSTNKNQLKQLTETYEEDRKNYSEVQIRCQRLALELADTKQLIQQGDYRQENYDKVKSERDALEQEVIELRRKHEILEASHMIQTKERSELSKEVVTLEQTVTLLQKDKEYLNRQNMELSVRCAHEEDRLERLQAQLEESKKAREEMYEKYVASRDHYKTEYENKLHDELEQIRLKTNQEIDQLRNASREMYERENRNLREARDNAVAEKERAVMAEKDALEKHDQLLDRYRELQLSTESKVTEFLHQSKLKSFESERVQLLQEETARNLTQCQLECEKYQKKLEVLTKEFYSLQASSEKRITELQAQNSEHQARLDIYEKLEKELDEIIMQTAEIENEDEAERVLFSYGYGANVPTTAKRRLKQSVHLARRVLQLEKQNSLILKDLEHRKDQVTQLSQELDRANSLLNQTQQPYRYLIESVRQRDSKIDSLTESIAQLEKDVSNLNKEKSALLQTKNQMALDLEQLLNHREELAAMKQILVKMHSKHSENSLLLTKTEPKHVTENQKSKTLNVPKEHEDNIFTPKPTLFTKKEAPEWSKKQKMKT
B3: Cep131 (protein, UniProt Q9UPN4 1-1083)
chain: MKGTRAIGSVPERSPAGVDLSLTGLPPPVSRRPGSAATTKPIVRSVSVVTGSEQKRKVLEATGPGGSQAINNLRRSNSTTQVSQPRSGSPRPTEPTDFLMLFEGSPSGKKRPASLSTAPSEKGATWNVLDDQPRGFTLPSNARSSSALDSPAGPRRKECTVALAPNFTANNRSNKGAVGNCVTTMVHNRYTPSERAPPLKSSNQTAPSLNNIIKAATCEGSESSGFGKLPKNVSSATHSARNNTGGSTGLPRRKEVTEEEAERFIHQVNQATVTIQRWYRHQVQRRGAGAARLEHLLQAKREEQRQRSGEGTLLDLHQQKEAARRKAREEKARQARRAAIQELQQKRALRAQKASTAERGPPENPRETRVPGMRQPAQELSPTPGGTAHQALKANNTGGGLPAAGPGDRCLPTSDSSPEPQQPPEDRTQDVLAQDAAGDNLEMMAPSRGSAKSRGPLEELLHTLQLLEKEPDVLPRPRTHHRGRYAWASEVTTEDDASSLTADNLEKFGKLSAFPEPPEDGTLLSEAKLQSIMSFLDEMEKSGQDQLDSQQEGWVPEAGPGPLELGSEVSTSVMRLKLEVEEKKQAMLLLQRALAQQRDLTARRVKETEKALSRQLQRQREHYEATIQRHLAFIDQLIEDKKVLSEKCEAVVAELKQEDQRCTERVAQAQAQHELEIKKLKELMSATEKARREKWISEKTKKIKEVTVRGLEPEIQKLIARHKQEVRRLKSLHEAELLQSDERASQRCLRQAEELREQLEREKEALGQQERERARQRFQQHLEQEQWALQQQRQRLYSEVAEERERLGQQAARQRAELEELRQQLEESSSALTRALRAEFEKGREEQERRHQMELNTLKQQLELERQAWEAGRTRKEEAWLLNREQELREEIRKGRDKEIELVIHRLEADMALAKEESEKAAESRIKRLRDKYEAELSELEQSERKLQERCSELKGQLGEAEGENLRLQGLVRQKERALEDAQAVNEQLSSERSNLAQVIRQEFEDRLAASEEETRQAKAELATLQARQQLELEEVHRRVKTALARKEEAVSSLRTQHEAAVKRADHLEELLEQHRRPTPSTK

The test addresses myc-BirA*-FOPNL (human) (UniProt Q96NB1). In words: proximity labelling.
Regarding PCM1 (from UniProt Q15154 1-2024), the binding result was “binds”.
Consider CEP350 (from UniProt Q5VT06 1-3117), for which the binding entry is given as “binds”.
Talpid3 (from UniProt Q9BVV6 1-1533): the binding entry was “binds”.
As to B1, the binding entry was “binds”.
For B2 the value was “binds”; for B3, “binds”.
